Laboratory results reported in article PMC9751095.
No constants are given. Whether binding was seen depends on the method and setting. For some assays here: In cells and extracts the contact can be indirect. Some entries that bind do so weakly or less than the wild type. Where a sequence is shown, tags or fusion partners need not be part of it.

The chains behind the UniProt entries cited, without tags or fusion partners. Residues count along the entry.
UniProt P30405, residues 30-207: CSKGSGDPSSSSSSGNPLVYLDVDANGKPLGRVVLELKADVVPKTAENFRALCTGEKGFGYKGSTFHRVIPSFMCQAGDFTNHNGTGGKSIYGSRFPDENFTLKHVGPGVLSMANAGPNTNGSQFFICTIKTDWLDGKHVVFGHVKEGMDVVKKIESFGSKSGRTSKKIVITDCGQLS

Experiments:
[1] = molecular target: T1, oligomycin sensitivity-conferring protein (OSCP) subunit of F-ATP synthase (human (endogenous in U87)) (UniProt P48047); assay: co-IP; immunoprecipitation of OSCP (beads with mouse monoclonal anti ATP50/OSCP) from solubilized mitochondria of U87 cells with or without TRAP1 (SCR, KO), overnight at 4 °C; Western blotting
T1 sequence: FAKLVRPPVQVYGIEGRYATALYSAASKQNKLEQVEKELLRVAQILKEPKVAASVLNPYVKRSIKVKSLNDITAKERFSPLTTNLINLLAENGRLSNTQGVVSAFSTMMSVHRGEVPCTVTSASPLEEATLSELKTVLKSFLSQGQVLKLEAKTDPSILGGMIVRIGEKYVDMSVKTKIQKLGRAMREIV

[2] = molecular target: T1, oligomycin sensitivity-conferring protein (OSCP) subunit of F-ATP synthase (human (endogenous in U87)); assay: SEC; soluble fraction (0.7% digitonin) of mitochondria of U87 cells with or without TRAP1 (SCR, KO) on FPLC-Superdex S200 in 20 mM Tris-HCl pH 7.5, 10% glycerol, 10 mM β-mercaptoethanol, 0.5 M NaCl; fractions analyzed by Western blot

Substance: peptidyl-prolyl cis-trans isomerase cyclophilin D (from UniProt P30405 30-207) (enzyme)
- binding [1]: binds
- binding [2]: binds
